Reference: PubChem BioAssay AID686938 (Drosophila RNAi Screening Center, 2013)
Test: 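Fly genes required for calcium entry once internal stores are emptied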 (primary screen). Cell system: Drosophila S2R+ cells. Reagents: long dsRNA against Drosophila genes, about 0.25 µg dsRNA per well, roughly 10,000 cells. Timing: 5 days of knock-down before the calcium assay. Treatment: thapsigargin (SERCA pump blocker) to empty calcium stores; entry signal taken 4 min after adding it. Read-out: 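Duplicate raw fluo-4 intensities per well from a plate reader, at rest and four minutes after thapsigargin emptied calcium stores; entry-to-rest ratio filled for only some wells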. Reading the numbers: calcium entry signal: higher = stronger calcium signal after store depletion; resting calcium signal: higher = higher resting calcium signal. Units: calcium entry signal in fluorescence units; resting calcium signal in fluorescence units. Hit rule: 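Hit if the duplicate-averaged plate z-score for entry over resting signal is under −3; wells with weak total dye signal (Fmax z < −2) or more than 5 off-targets removed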. Meaning of the calls: active = strongly reduced calcium entry; inactive = no strong reduction.
In all, the deposit lists about 23,000 reagents; shown is an unselected part of those with a known target gene and a result. Of all reagents, 75 (0.33%) got an active call. 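Raw plate signals without normalisation; calls rest on plate z-scores that were not deposited; ratio present for only 364 wells.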 Entries without a mark were called inactive. Reagents against one gene are numbered here. Names joined by + are all predicted targets of the reagent. Not stated in the record: the dose of the treatment.

Csgalnact (Chondroitin sulfate N-acetylgalactosaminyltransferase): calcium entry signal, replicate 1 = 3.03e7; calcium entry signal, replicate 2 = 3.52e7; resting calcium signal, replicate 1 = 1.55e7; resting calcium signal, replicate 2 = 1.54e7
CG10147: calcium entry signal, replicate 1 = 3.60e7; calcium entry signal, replicate 2 = 6.12e7; resting calcium signal, replicate 1 = 1.69e7; resting calcium signal, replicate 2 = 2.60e7
mask (multiple ankyrin repeats single KH domain) #1: calcium entry signal, replicate 1 = 5.14e7; calcium entry signal, replicate 2 = 7.36e7; resting calcium signal, replicate 1 = 3.22e7; resting calcium signal, replicate 2 = 3.71e7
mask (multiple ankyrin repeats single KH domain) #2: calcium entry signal, replicate 1 = 3.13e7; calcium entry signal, replicate 2 = 3.49e7; resting calcium signal, replicate 1 = 1.98e7; resting calcium signal, replicate 2 = 2.16e7
mask (multiple ankyrin repeats single KH domain) #3: calcium entry signal, replicate 1 = 3.13e7; calcium entry signal, replicate 2 = 3.61e7; resting calcium signal, replicate 1 = 1.90e7; resting calcium signal, replicate 2 = 2.09e7
Eato (Engulfment ABC Transporter in the ovary) #1: calcium entry signal, replicate 1 = 5.88e7; resting calcium signal, replicate 1 = 2.56e7
Eato (Engulfment ABC Transporter in the ovary) #2: calcium entry signal, replicate 1 = 4.79e7; calcium entry signal, replicate 2 = 2.99e7; resting calcium signal, replicate 1 = 2.06e7; resting calcium signal, replicate 2 = 1.24e7
DNAlig3 (DNA ligase 3): calcium entry signal, replicate 1 = 3.47e7; calcium entry signal, replicate 2 = 3.60e7; resting calcium signal, replicate 1 = 1.78e7; resting calcium signal, replicate 2 = 1.96e7
CG12480: calcium entry signal, replicate 1 = 2.86e7; calcium entry signal, replicate 2 = 3.87e7; resting calcium signal, replicate 1 = 1.52e7; resting calcium signal, replicate 2 = 1.84e7
CG34426: calcium entry signal, replicate 1 = 3.55e7; calcium entry signal, replicate 2 = 5.59e7; resting calcium signal, replicate 1 = 1.64e7; resting calcium signal, replicate 2 = 2.37e7
CG5098: calcium entry signal, replicate 1 = 3.90e7; calcium entry signal, replicate 2 = 3.64e7; resting calcium signal, replicate 1 = 1.84e7; resting calcium signal, replicate 2 = 1.78e7
Pstk + Tim9b #1: calcium entry signal, replicate 1 = 2.29e7; calcium entry signal, replicate 2 = 2.47e7; resting calcium signal, replicate 1 = 1.21e7; resting calcium signal, replicate 2 = 9.92e6
Pstk + Tim9b #2: calcium entry signal, replicate 1 = 3.73e7; calcium entry signal, replicate 2 = 4.01e7; resting calcium signal, replicate 1 = 2.03e7; resting calcium signal, replicate 2 = 1.74e7
CG34202: calcium entry signal, replicate 1 = 2.39e7; calcium entry signal, replicate 2 = 3.75e7; resting calcium signal, replicate 1 = 1.12e7; resting calcium signal, replicate 2 = 1.62e7
TfIIB (Transcription factor IIB): calcium entry signal, replicate 1 = 1.93e7; calcium entry signal, replicate 2 = 2.64e7; resting calcium signal, replicate 1 = 1.13e7; resting calcium signal, replicate 2 = 1.35e7
eIF5B (eukaryotic translation initiation factor 5B) #1: calcium entry signal, replicate 1 = 2.14e7; calcium entry signal, replicate 2 = 2.04e7; resting calcium signal, replicate 1 = 1.18e7; resting calcium signal, replicate 2 = 1.08e7
eIF5B (eukaryotic translation initiation factor 5B) #2: calcium entry signal, replicate 1 = 1.92e7; calcium entry signal, replicate 2 = 1.75e7; resting calcium signal, replicate 1 = 1.02e7; resting calcium signal, replicate 2 = 9.78e6
CG42850 (retired record): calcium entry signal, replicate 1 = 6.63e7; calcium entry signal, replicate 2 = 3.46e7; resting calcium signal, replicate 1 = 3.19e7; resting calcium signal, replicate 2 = 1.82e7
ZnT35C (Zinc transporter 35C): calcium entry signal, replicate 1 = 4.05e7; calcium entry signal, replicate 2 = 2.61e7; resting calcium signal, replicate 1 = 1.84e7; resting calcium signal, replicate 2 = 1.28e7
Hem (HEM-protein): calcium entry signal, replicate 1 = 2.78e7; calcium entry signal, replicate 2 = 3.61e7; resting calcium signal, replicate 1 = 1.35e7; resting calcium signal, replicate 2 = 2.43e7
CG15353: calcium entry signal, replicate 1 = 2.21e7; calcium entry signal, replicate 2 = 6.44e7; resting calcium signal, replicate 1 = 1.13e7; resting calcium signal, replicate 2 = 3.30e7

Sorted by “calcium entry signal, replicate 2” (descending): some entries from above
Pstk + Tim9b #2: calcium entry signal, replicate 1 = 3.73e7; calcium entry signal, replicate 2 = 4.01e7; resting calcium signal, replicate 1 = 2.03e7; resting calcium signal, replicate 2 = 1.74e7
CG34202: calcium entry signal, replicate 1 = 2.39e7; calcium entry signal, replicate 2 = 3.75e7; resting calcium signal, replicate 1 = 1.12e7; resting calcium signal, replicate 2 = 1.62e7
TfIIB (Transcription factor IIB): calcium entry signal, replicate 1 = 1.93e7; calcium entry signal, replicate 2 = 2.64e7; resting calcium signal, replicate 1 = 1.13e7; resting calcium signal, replicate 2 = 1.35e7
